PubChem BioAssay AID1259269 – Sanger Institute, 2017

Assay: 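Confirm siRNA and drug combinations that act together against HCC2998 cells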 (follow-up of hits)
Cells: HCC2998 human colorectal cancer cells
Reagents: single siRNA against human genes
Conditions: anchor drug BYL719 1 µM, cetuximab 5 µg/ml or trametinib 10 nM; DMSO vehicle as comparison arm
Measurement: 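Survival versus non-targeting control siRNA, replicate means, under DMSO or drug (BYL719 1 µM, cetuximab 5 µg/ml, trametinib 10 nM) and a drug synergy score, higher meaning stronger synthetic lethality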
Direction: synergy score with BYL719 and synergy score with cetuximab and synergy score with trametinib: higher = stronger synthetic lethal effect with the drug; viability with DMSO: higher = more cells survive the knock-down; viability with trametinib: higher = more cells survive knock-down plus drug
Rule for the call: 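Active if the synergy score exceeds 0.10 for at least one of BYL719, cetuximab or trametinib; otherwise inactive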
Calls: active = synergy with at least one drug; inactive = no synergy with any drug
The deposit covers 160 reagents; this is a random part of them. In the full data, 108 (68%) are marked active. 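Viability cannot exceed 1; how synergy scores were computed is not described.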 Unmarked entries are inactive. Reagents against one gene are numbered here. Viability is capped at 1. The record does not give: the amount of reagent, the time to read-out.

Target gene	reagent no.	synergy score with BYL719	synergy score with cetuximab	synergy score with trametinib	viability with DMSO (fraction of control)	viability with trametinib (fraction of control)
PFKFB3 (GeneID 5209)	1	-0.162	-0.155	-0.021	0.235	0.153
PFKFB3 (GeneID 5209)	2	0.117 (active)	0.211	0.1	0.359	0.101
PFKFB3 (GeneID 5209)	3	-0.101 (active)	0.101	-0.0193	0.478	0.287
PFKFB3 (GeneID 5209)	4	-0.121	-0.00484	0.0258	0.995	0.533
PAK1 (GeneID 5058)	1	-0.299 (active)	0.048	0.104	0.439	0.142
PAK1 (GeneID 5058)	2	-0.0515 (active)	0.0704	0.105	0.587	0.225
PAK1 (GeneID 5058)	3	-0.0571 (active)	-0.00836	0.124	0.417	0.11
PAK1 (GeneID 5058)	4	0.161 (active)	0.287	0.197	0.866	0.289
NLK (GeneID 51701)	1	-0.232 (active)	-0.131	0.176	0.869	0.312
NLK (GeneID 51701)	2	-0.116 (active)	0.141	0.439	1	0.122
NLK (GeneID 51701)	3	-0.136 (active)	0.216	0.226	0.968	0.318
NLK (GeneID 51701)	4	-0.0627 (active)	-0.0233	0.243	0.977	0.305
COASY (GeneID 80347)	1	-0.0892	-0.164	-0.143	0.508	0.428
COASY (GeneID 80347)	2	-0.0478	-0.0785	0.0246	0.31	0.149
COASY (GeneID 80347)	3	-0.0811	-0.124	-0.0193	0.105	0.0785
COASY (GeneID 80347)	4	0.177 (active)	0.264	0.139	0.776	0.296
CSNK2A2 (GeneID 1459)	1	0.193 (active)	0.18	0.251	0.842	0.222
CSNK2A2 (GeneID 1459)	2	-0.0926 (active)	-0.0484	0.116	0.537	0.185
CSNK2A2 (GeneID 1459)	3	0.217 (active)	0.205	0.325	1	0.237
CSNK2A2 (GeneID 1459)	4	0.0448	0.0631	0.0632	0.253	0.0788
MAP3K8 (GeneID 1326)	1	-0.116	0	0.00558	1	0.556
MAP3K8 (GeneID 1326)	2	-0.0362	0.0117	-0.000368	0.209	0.118
MAP3K8 (GeneID 1326)	3	-0.157 (active)	0.257	0.248	0.903	0.259
MAP3K8 (GeneID 1326)	4	0.187 (active)	0	0.376	1	0.186
PIK3CA (GeneID 5290)	1	0.0151	0.0506	0.081	0.779	0.356
PIK3CA (GeneID 5290)	2	0.0818	0.0565	0.081	0.657	0.288
PIK3CA (GeneID 5290)	3	-0.133	-0.165	0.0673	0.454	0.188
PIK3CA (GeneID 5290)	4	-0.265 (active)	-0.178	0.188	0.64	0.171
HSPB8 (GeneID 26353)	1	-0.343 (active)	-0.0541	0.189	0.709	0.209
HSPB8 (GeneID 26353)	2	-0.116 (active)	0.32	-0.0941	1	0.656
HSPB8 (GeneID 26353)	3	-0.116 (active)	0.135	0.237	1	0.324
HSPB8 (GeneID 26353)	4	0.159 (active)	0.309	0.232	0.754	0.192
SF3B1 (GeneID 23451)	1	-0.0436	-0.0535	-0.0414	0.196	0.151
SF3B1 (GeneID 23451)	2	-0.023	-0.0471	-0.0188	0.152	0.104
SF3B1 (GeneID 23451)	3	0.0457	-0.0971	-0.0413	0.508	0.327
SF3B1 (GeneID 23451)	4	-0.0104	-0.0414	0.0145	0.245	0.123
BRAF (GeneID 673)	1	-0.332	-0.207	-0.289	0.492	0.565
BRAF (GeneID 673)	2	0.0807 (active)	-0.0384	0.116	0.604	0.223
BRAF (GeneID 673)	3	0.0032	-0.0518	-0.0123	0.414	0.245
BRAF (GeneID 673)	4	-0.064	0.0816	-0.0565	0.689	0.443
STK36 (GeneID 27148)	1	-0.29 (active)	-0.0194	0.231	0.724	0.176
STK36 (GeneID 27148)	2	-0.0852 (active)	-0.0938	0.183	0.906	0.325
STK36 (GeneID 27148)	3	-0.0847 (active)	0.133	0.0576	0.622	0.292
STK36 (GeneID 27148)	4	-0.116 (active)	0.188	0.251	1	0.31

6 entries from above, limited to “synergy score with trametinib”.
CSNK2A2 (GeneID 1459) #3 = 0.325 (active)
CSNK2A2 (GeneID 1459) #4 = 0.0632
MAP3K8 (GeneID 1326) #1 = 0.00558
MAP3K8 (GeneID 1326) #2 = -0.000368
MAP3K8 (GeneID 1326) #3 = 0.248 (active)
MAP3K8 (GeneID 1326) #4 = 0.376 (active)
